{"source": "PubChem BioAssay AID743454 (Peter MacCallum Cancer Centre, 2014)", "screen": "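Search for knock-downs that restore vorinostat killing in resistant colon cancer cells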 (primary screen)", "cells": "human HCT116-VR colon cancer cells, selected for vorinostat resistance", "knock-down reagent": "siRNA pool against human genes, 40 nM siRNA pool", "time to read-out": "vorinostat for 24 h, read-out about 72 h after transfection", "treatment": "vorinostat at 2.5 µM final", "read-out": "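Two measures, CellTiter-Fluor viability and luminescent caspase 3/7 activity, each as fold change against same-plate mock wells, mean of duplicates, then screen-wide robust z-score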", "reading the numbers": "viability robust z-score: higher = more viable cells than screen typical; caspase robust z-score: higher = more caspase 3/7 activity than screen typical", "active means": "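Hits are knock-downs in viability class RV1/RV2 or caspase class CA1/CA2, excluding ones that killed cells in the no-drug cell-count arm; hits then retested with single siRNAs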", "note": "The whole screen tested about 18,000 reagents; this is an unselected part. Over the whole deposit, 450 (2.5%) were called active. 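Single biological run; no consistent viability z cut-off exists, so the class columns, not z-scores, define the calls.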"}
{"target": "SIGLEC7", "viability hit class": "no change", "caspase hit class": "no change", "viability robust z-score": 0.06, "caspase robust z-score": -0.43, "Outcome": "inactive"}
{"target": "C14orf119", "viability hit class": "no change", "caspase hit class": "no change", "viability robust z-score": -0.54, "caspase robust z-score": -0.55, "Outcome": "inactive"}
{"target": "PPARA", "viability hit class": "no change", "caspase hit class": "no change", "viability robust z-score": 0.44, "caspase robust z-score": -0.66, "Outcome": "inactive"}
{"target": "H2AZ1", "viability hit class": "no change", "caspase hit class": "no change", "viability robust z-score": 0.1, "caspase robust z-score": 2.02, "Outcome": "inactive"}
{"target": "STX18", "viability hit class": "no change", "caspase hit class": "no change", "viability robust z-score": 0.24, "caspase robust z-score": -0.46, "Outcome": "inactive"}
{"target": "TAF6", "viability hit class": "no change", "caspase hit class": "no change", "viability robust z-score": 1.17, "caspase robust z-score": -0.16, "Outcome": "inactive"}
{"target": "ADAR", "viability hit class": "no change", "caspase hit class": "no change", "viability robust z-score": 1.25, "caspase robust z-score": 1.09, "Outcome": "inactive"}
{"target": "CLSTN3", "viability hit class": "no change", "caspase hit class": "no change", "viability robust z-score": -0.42, "caspase robust z-score": 1.24, "Outcome": "inactive"}
{"target": "WDR72", "viability hit class": "no change", "caspase hit class": "no change", "viability robust z-score": 1.29, "caspase robust z-score": 0.92, "Outcome": "inactive"}
{"target": "OR2L2", "viability hit class": "no change", "caspase hit class": "no change", "viability robust z-score": -0.82, "caspase robust z-score": -1.02, "Outcome": "inactive"}
{"target": "SNX14", "viability hit class": "no change", "caspase hit class": "no change", "viability robust z-score": 1.39, "caspase robust z-score": -0.56, "Outcome": "inactive"}
{"target": "GRIN2C", "viability hit class": "no change", "caspase hit class": "no change", "viability robust z-score": -1, "caspase robust z-score": 1.73, "Outcome": "inactive"}
{"target": "LEP", "viability hit class": "no change", "caspase hit class": "no change", "viability robust z-score": 1.31, "caspase robust z-score": -0.74, "Outcome": "inactive"}
{"target": "LRP5L", "viability hit class": "no change", "caspase hit class": "no change", "viability robust z-score": -0.99, "caspase robust z-score": -0.85, "Outcome": "inactive"}
{"target": "SURF6", "viability hit class": "no change", "caspase hit class": "no change", "viability robust z-score": -0.96, "caspase robust z-score": 3.84, "Outcome": "inactive"}
{"target": "CHRNA6", "viability hit class": "no change", "caspase hit class": "no change", "viability robust z-score": 0, "caspase robust z-score": -1.03, "Outcome": "inactive"}
{"target": "CHRDL1", "viability hit class": "no change", "caspase hit class": "no change", "viability robust z-score": -1.95, "caspase robust z-score": -1.23, "Outcome": "inactive"}
{"target": "KCNG2", "viability hit class": "no change", "caspase hit class": "no change", "viability robust z-score": 0.84, "caspase robust z-score": -0.3, "Outcome": "inactive"}
{"target": "ATXN7", "viability hit class": "no change", "caspase hit class": "no change", "viability robust z-score": -0.16, "caspase robust z-score": 0.3, "Outcome": "inactive"}
{"target": "SOX14", "viability hit class": "no change", "caspase hit class": "no change", "viability robust z-score": -2.38, "caspase robust z-score": 0.55, "Outcome": "inactive"}
{"target": "DOLK", "viability hit class": "no change", "caspase hit class": "no change", "viability robust z-score": 0.4, "caspase robust z-score": -0.65, "Outcome": "inactive"}
